In the supplement of paper PMC3334620:
Whole data set: some 33,000 sequences, median “E-score (-0.5 to 0.5)” near -0.0014, cut for the highest 2% near 0.25. Some of the results follow.

Target: T1, Cad1 (UniProt P24813)
T1 sequence: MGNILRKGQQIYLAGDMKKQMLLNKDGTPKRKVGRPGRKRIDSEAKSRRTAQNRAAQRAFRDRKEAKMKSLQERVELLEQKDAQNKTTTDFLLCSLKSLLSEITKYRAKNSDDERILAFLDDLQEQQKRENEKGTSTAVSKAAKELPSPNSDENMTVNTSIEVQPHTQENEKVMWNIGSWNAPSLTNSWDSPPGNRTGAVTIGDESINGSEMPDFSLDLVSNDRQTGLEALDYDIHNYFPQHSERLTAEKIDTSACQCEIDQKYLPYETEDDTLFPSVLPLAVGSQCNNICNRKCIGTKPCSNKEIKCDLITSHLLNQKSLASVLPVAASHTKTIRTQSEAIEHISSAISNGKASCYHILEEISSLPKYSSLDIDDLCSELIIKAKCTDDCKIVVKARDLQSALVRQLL
Assay: PBM E-score (8-mer binding enrichment) (E-score (-0.5 to 0.5)); higher = stronger / more preferred TF binding
Settings: protein concentration: 100 nM; construct: GST-full length
Summary of the method: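 Bound GST-tagged yeast transcription factors, applied at about 100-200 nM to double-stranded universal all-10-mer Agilent arrays, were detected with fluorescent anti-GST. Scans were normalised with masliner. A modified Wilcoxon-Mann-Whitney statistic, the E-score, was assigned to each ungapped eight-base word pooled with its reverse complement by the Universal PBM Analysis Suite.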

Sequence | PBM E-score
AGTATTAA | 0.0712
ATGGGGCA | -0.0999
CAACTGAA | -0.15
GGAGATCA | -0.0337
ACCCAGGC | -0.0109
CCGCCGAA | -0.0118
CGCGGGAA | 0.18
GTGAGTTA | 0.00781
AGTGATGA | -0.149
CGATATCC | 0.141
AATGAGCG | 0.198
GCTTAAAA | 0.0591
CATTTCCA | 0.146
ATACTGCC | 0.0241
AATTGGTG | 0.216
GCGTCCAC | 0.00433
CGTATAAC | 0.133
ACGGCGTC | -0.124
GTCAGGAA | 0.0353
CAGTGTCC | -0.0177
CCACCTTA | -0.0703
ATAGCTTG | 0.0727
ACGCTGAT | 0.166
AACCGGCT | -0.138
GTAAAATA | 0.207

Sequence | PBM E-score
ATTGAAGG | -0.138
CCTGTGAC | -0.132
AAGCTGAC | 0.242
CCGGCATC | -0.11
CAAACGGC | -0.207
AATAGCGG | -0.0047
GAGTATTA | 0.0374
CCTTCGTC | -0.195
CTCCGCCC | -0.108
GCAGAGTA | -0.0109
GAGATTGC | -0.088
AGCGTAGC | -0.0175
AAAAGGAC | -0.117
AACCACTG | 0.0784
ACCGACCC | -0.152
GAGCCCGA | 0.0741
ACCGCAGT | -0.0705
AGCCCGCA | 0.0417
ACCTGAGA | -0.0465
CCCTCTAC | -0.322
AATGATTC | 0.0808
AAATGCCG | 0.124
TCGGAGCA | -0.135
CCGAACCA | -0.187
AGGCGACT | -0.131

For convenience, part of the list above.
Sequence | PBM E-score
ACCGACCC | -0.152
GAGCCCGA | 0.0741
ACCGCAGT | -0.0705
AGCCCGCA | 0.0417
ACCTGAGA | -0.0465

Next records:

Sequence | PBM E-score
CCTAAGGA | -0.0179
AGAAAGCG | -0.0665
ACTTCGGA | 0.136
CCCTATGC | -0.0516
CTTACTCC | 0.0513
ATGGGTAA | 0.0692
GTGGCAAC | 0.0625
ACTCCCCA | -0.159
AGTGTCTA | 0.145
CCGCCCCA | 0.113
CGTAATCA | 0.336
ACTTACAA | 0.278
AAGAGTAA | 0.068
ATTCCTCG | 0.113
AACCGTAT | -0.178
CTATAGTC | -0.18
CAACACCG | -0.0149
CAGAGTCA | -0.129
TATTCCCA | 0.0149
AGATGGTC | -0.169
TATAGGGA | -0.0721
CGGATCCG | 0.0808
GGCCCTAA | 0.0115
CTAGTCAG | 0.0283
GCCGCGGA | -0.00234

Exported tab-delimited: part of the list above
Sequence	PBM E-score
CTATAGTC	-0.18
CAACACCG	-0.0149

More records:

Sequence | PBM E-score
CGGGCAGC | -0.0301
CACCCGCG | 0.126
AGCCGTTA | 0.114
GCGGGTCA | 0.115
GAGACTAA | 0.00477
ACATACCT | -0.146
GCGATTCC | 0.0222
GTACTGAC | -0.134
AAATTTGA | 0.325
CTTACAAG | 0.0333
AACGCTCT | -0.0819
AGGAGGTC | -0.228
CAGCCCAG | -0.246
CCCCGTTA | -0.157
CGATCTTC | 0.00674
AACTACGG | -0.0862
AACGGAAA | 0.219
CAGGCCCG | -0.236
ACATACTG | 0.0301
CACTCACG | -0.0909
ATAATACG | 0.186
CGGTGCTC | -0.0528
GTCCAGCA | -0.0579
AGTCTCGA | 0.0451
CTTCTCCC | -0.324

Sequence | PBM E-score
AGAAATCG | -0.00121
GACTCATA | -0.0185
CGGCGCTC | 0.0522
TCGCGTAA | 0.19
CTGATACC | -0.15
AAAGATAG | 0.00786
CTAATGAA | 0.146
AACGCATC | 0.0105
AAGTCTCA | -0.181
ACTAACAC | 0.184
AGTTAAGC | 0.0381
CGCGAAAA | 0.246
CTTGGAGA | -0.0247
CCTAATCG | 0.168
CTTTTGAA | 0.0525
ACGGAAGA | 7e-05
ATACACCG | 0.13
ATATTATA | 0.164
ATTTAGAA | -0.0536
CCGTACCG | -0.151
CGGCCTGA | -0.214
AAGCGGCC | -0.164
CTAGACCA | 0.00762
CTGGTCAA | -0.0689
CACGAGCG | -0.0893

Sequence | PBM E-score
GGACCCAC | -0.0599
CAGTGTAA | 0.081
GGCACAAA | -0.169
GACAAAGA | 0.276
CTACGACC | -0.156
AGCTCCGG | -0.115
CACTCCTC | -0.146
GAGGATGA | 0.0761
AGACCATC | -0.0573
CAGGTCTA | 0.0481
AGGAGCTC | -0.165
AACCATTA | 0.166
CCGGTCTA | -0.244
GGAATAGA | -0.00051
CAGAGAAG | -0.187
CGACCGAA | -0.105
GAAGTTGA | -0.00863
AAGGGTAT | 0.0311
AGAGTGCG | -0.0274
AGATCTAA | 0.138
GCCCGTAA | 0.0144
GTTATTTA | 0.153
AAAGCTGA | 0.0368
AGCTTAGC | 0.102
AGGTTTCC | -0.0162

Looked up one by one from the entries so far (3):
Sequence | PBM E-score
GAGACTAA | 0.00477
AAAGCTGA | 0.0368
ACTTACAA | 0.278

(list continues)

Sequence | PBM E-score
CAATCGAC | -0.00241
ACGAGAGT | -0.122
AGCGTTAG | 0.0392
GTGAAAAA | 0.121
CCCTTAGG | -0.13
AGAGGAAC | -0.0542
CTCCTCCA | -0.143
ATGAATAG | 0.0469
CAGGCGTC | -0.0605
ACTGACAG | 0.0822
ATGAACAG | -0.0207
ATGCCGTG | 0.0808
AAGCTAGC | 0.0693
AGGCTGAC | 0.145
CCATAATC | 0.0845
ATGGGGAC | -0.0612
ACCTCTCA | -0.0819
CTACTAAC | 0.109
GCCGCCGC | -0.0983
ATGCCGAC | 0.0141
ACTACCCG | -0.0883
AAAGCAGC | 0.17
CTCATCGA | 0.0528
AACGCCAC | 0.0935
CATGATTA | 0.216

Sequence | PBM E-score
CAAAGACG | -0.0208
ACGAGTTC | 0.103
CTACCTTC | -0.0206
CAGCAATG | -0.196
AGACGGTG | -0.0762
CAAGACAG | -0.0259
GGCCAACA | -0.0831
ACACAGAT | 0.0606
CCCAGCGA | -0.0573
CCACTAGC | -0.269
AATTCATG | 0.24
CCACAAGG | -0.179
GCGGATCC | -0.093
AGGTGAAA | 0.0145
ACTCACAA | 0.0634
CAATGCCC | -0.149
CACCGATC | 0.0298
GCGACGAC | -0.264
AGAGTGGA | -0.0214
GAACGCGC | 0.0894
ACCACAAT | -0.0451
CCATAGAG | -0.0455
GCCGTTCA | -0.0703
GAGACCTA | -0.118
ATGCATGC | 0.216

Sequence | PBM E-score
TCGACCCA | 0.0438
AACGGAAC | 0.158
AGCAATAA | 0.092
GACTTGCA | 0.118
AGGCAAAT | 0.0439
AAAAACAG | -0.0766
CTCGCTAA | 0.0053
ATTCAAAT | 0.229
AGATCGCT | 0.0393
GAGCGTTA | 0.138
ATTGGCAC | 0.0636
CTACGGAC | -0.188
GATACGGA | 0.0795
TAAGATCA | 0.0547
GCAAGCCA | -0.145
GAATATGC | 0.047
AGTTGTAT | 0.0942
ATTACGGG | -0.0551
ACCCCGCA | 0.0794
